No constants are given. Whether binding was seen depends on the method and setting. In cells and extracts the contact can be indirect. Some entries that bind do so weakly or less than the wild type. Where a sequence is shown, tags or fusion partners need not be part of it.
Molecular target: N-terminally FLAG-HA epitope-tagged human HIRIP3 (e-HIRIP3) (human) (UniProt Q9BW71)
Assay: co-IP; the tandem FLAG/HA-purified soluble nuclear (SNC) and chromatin-associated (CAC) e-HIRIP3 complexes from HeLa probed by Western blot with anti-H2A, anti-H2A.Z, anti-H3, anti-H2B and anti-CK2 alpha

CK2 kinase (casein kinase CK2 alpha (CSNK2A1 or CSNK2A2) and beta subunits) (from UniProt P68400 1-391; P19784 1-350; P67870 1-215) (complex)
binding: binds

From publication PMC10854748
